Measured values taken from article PMC6677832.
Results are given in words; binding and its absence hold for the method and conditions named. For some of these results: In cells and extracts the contact can be indirect. Some entries that bind do so weakly or less than the wild type.

Protein sequences, listed by entry. Tags and fused reporters are not part of them.
UniProt P01106: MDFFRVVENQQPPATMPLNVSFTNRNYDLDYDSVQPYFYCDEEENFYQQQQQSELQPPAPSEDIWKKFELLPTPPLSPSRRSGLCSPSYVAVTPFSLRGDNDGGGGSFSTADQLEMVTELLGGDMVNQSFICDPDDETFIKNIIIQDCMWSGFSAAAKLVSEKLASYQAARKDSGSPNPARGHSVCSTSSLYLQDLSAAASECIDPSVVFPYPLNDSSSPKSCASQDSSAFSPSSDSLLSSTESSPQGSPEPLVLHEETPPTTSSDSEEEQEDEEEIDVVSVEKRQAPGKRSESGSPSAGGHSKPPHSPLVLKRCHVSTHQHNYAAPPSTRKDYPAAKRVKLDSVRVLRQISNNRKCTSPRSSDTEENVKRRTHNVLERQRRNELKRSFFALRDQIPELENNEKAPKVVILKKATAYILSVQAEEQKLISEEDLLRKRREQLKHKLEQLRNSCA

Experiments:
[1] = target: c-Myc (human (endogenous in DLD-1)) (UniProt P01106); assay: co-IP; DLD-1 cells after transfection of GLCC1 siRNA; immunoprecipitation and western blot
[2] = target: c-Myc (human (endogenous in DLD-1)) (UniProt P01106); assay: co-IP; endogenous proteins in DLD-1 cells; HSP90 and c-Myc antibodies, normal rabbit IgG as control; western blot
[3] = target: GST-c-Myc (human) (UniProt P01106); assay: pull-down; 2 ug GST or GST-c-Myc on glutathione-Sepharose 4B beads; 1 ug His-HSP90 added without or with GLCC1 lncRNA (lncRNA strengthened the interaction); 1 h, 4 °C; 20 mM Tris pH 7.5, 150 mM NaCl, 1% Triton X-100, 2 mM DTT, 1 mM EDTA; anti-GST and anti-His western blot; both purified
[4] = target: HSP90 (HSP90AA1) (human (endogenous in DLD-1)) (UniProt P07900); assay: co-IP; co-IP with western blot; cell line not named for this experiment; also done after down-regulation of GLCC1 (interaction impaired)

**Q.** What does the source list for “HSP90 (HSP90AA1) (from UniProt P07900 1-732)”?
**A.** binding [1]: no binding (condition: after knock-down of GLCC1 (siRNA)); binding [2]: binds

**Q.** Which binding [3] does the source give for His-HSP90 (from UniProt P07900 1-732) here?
**A.** Its binding is “binds”.

B1: USP22 (enzyme, UniProt Q9UPT9 1-525)
chain: MVSRPEPEGEAMDAELAVAPPGCSHLGSFKVDNWKQNLRAIYQCFVWSGTAEARKRKAKSCICHVCGVHLNRLHSCLYCVFFGCFTKKHIHEHAKAKRHNLAIDLMYGGIYCFLCQDYIYDKDMEIIAKEEQRKAWKMQGVGEKFSTWEPTKRELELLKHNPKRRKITSNCTIGLRGLINLGNTCFMNCIVQALTHTPLLRDFFLSDRHRCEMQSPSSCLVCEMSSLFQEFYSGHRSPHIPYKLLHLVWTHARHLAGYEQQDAHEFLIAALDVLHRHCKGDDNGKKANNPNHCNCIIDQIFTGGLQSDVTCQVCHGVSTTIDPFWDISLDLPGSSTPFWPLSPGSEGNVVNGESHVSGTTTLTDCLRRFTRPEHLGSSAKIKCSGCHSYQESTKQLTMKKLPIVACFHLKRFEHSAKLRRKITTYVSFPLELDMTPFMASSKESRMNGQYQQPTDSLNNDNKYSLFAVVNHQGTLESGHYTSFIRQHKDQWFKCDDAIITKASIKDVLDSEGYLLFYHKQFLEYE
**Q.** For B1, which binding [4] is on record?
**A.** Its binding is “binds”.
